Test results reported in patent US20200165343A1 (Dana-Farber, published 2020).
These are yes or no findings as the source states them, for the method shown. Some entries that bind do so weakly or less than the wild type.

Tests used:
[1] = molecular target: T1, MICA extracellular domain (α1-α3 domains), allele not stated (human) (UniProt Q29983); assay: fluorescence ELISA (DELFIA): coated antigen, mouse mAb at 1 µg/ml, biotinylated anti-mouse IgG + streptavidin-Europium
T1 sequence (looked up): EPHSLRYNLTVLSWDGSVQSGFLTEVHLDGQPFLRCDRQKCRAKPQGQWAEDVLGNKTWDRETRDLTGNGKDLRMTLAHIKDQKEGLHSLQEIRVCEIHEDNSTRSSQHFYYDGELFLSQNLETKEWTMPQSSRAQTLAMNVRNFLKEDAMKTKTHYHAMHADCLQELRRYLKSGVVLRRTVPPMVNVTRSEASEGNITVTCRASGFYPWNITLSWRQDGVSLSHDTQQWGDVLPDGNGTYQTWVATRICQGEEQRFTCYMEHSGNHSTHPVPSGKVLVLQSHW

[2] = molecular target: T1, MICA extracellular domain (α1-α3 domains), allele not stated (human); assay: ELISA on immobilized MICA
[3] = molecular target: T1, MICA extracellular domain (α1-α3 domains), allele not stated (human); assay: ELISA: immobilized MICA, antibody titrated, HRP anti-mouse IgG
[4] = molecular target: T1, MICA extracellular domain (α1-α3 domains), allele not stated (human); assay: fluorescence ELISA (DELFIA): immobilized MICA extracellular domain, antibody titrated, biotinylated anti-mouse IgG + Europium-streptavidin
[5] = molecular target: T1, MICA extracellular domain (α1-α3 domains), allele not stated (human); assay: fluorescence-based ELISA, immobilized antigen

- binding [1]: binds
- binding [2]: binds
- binding [3]: binds
- binding [4]: binds
- binding [5]: binds
B1: mAb 7C6 (parental murine IgG2b monoclonal antibody specific for the MICA/B α3 domain) (antibody, V domains shown)
VH: QIQLVQSGPELKKPGETVKVSCKASGYMFTNYAMNWVKQAPEKGLKWMGWINTHTGDPTYADDFKGRIAFSLETSASTAYLQINNLKNEDTATYFCVRTYGNYAMDYWGQGTSVTVSS
VL: DIQMTQTTSSLSASLGDRVTISCSASQDISNYLNWYQQKPDGTVKLLIYDTSILHLGVPSRFSGSGSGTDYSLTISNLEPEDIATYYCQQYSKFPRTFGGGTTLEIK
notes: Mouse hybridoma antibody; also called 7C6 mAb; 7C6-mIgG2b
